Drawing on patent US20250130245A1, this text covers binding for five molecules.

These are yes or no findings as the source states them, for the method shown. Some results given as binding are weak or reduced against the parent protein; the word gives no strength.

Experiment [1] concerns the target T1, CTNS 115 signature peptide (FLVIR) (human).
T1 sequence (peptide): FLVIR
Description: multiplexed immuno-SRM (peptide immunoaffinity enrichment, SRM-MS) on DBS digests.

For experiment [2] the target is unchanged. Description: immuno-SRM (peptide immunoaffinity enrichment, SRM-MS) on DBS digests.
Experiment [3] has as its target T2, WASp 274 signature peptide (…) (human).
T2 sequence (peptide): AGISEAQLTDAETSK
Description: capture of internal standard peptide, SRM-MS peak area, mAb compared with pAb.

For experiment [4] the target is unchanged. Description: capture of internal standard peptide, SRM-MS peak area.
Experiment [5] concerns the target T3, ATP7B 1056 signature peptide (…) (human).
T3 sequence (peptide): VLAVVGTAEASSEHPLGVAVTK
Description: immuno-SRM (peptide immunoaffinity enrichment, SRM-MS) on DBS digests.

In experiment [6] the target is T4, BTK 407 signature peptide (…) (human).
T4 sequence (peptide): ELGTGQFGVVK
Description: capture of internal standard peptide, SRM-MS peak area, mAb compared with pAb.

Experiment [7] shares this target. Description: capture of internal standard peptide, SRM-MS peak area.
The target in experiment [8] is T5, SHPK 363 signature peptide (…) (human).
T5 sequence (peptide): DTHLTITPTVLGER
Description: multiplexed immuno-SRM (peptide immunoaffinity enrichment, SRM-MS) on DBS digests.

B1: Anti-CTNS 115 monoclonal antibody (antibody, V domains shown)
VH: QEQLVESGGGLVQPEGSLTLTCKASGFSFSTRDGVCWVRQAPGKGLEWIACIYRGISATTSYASWAKGRFTISKTSSTTVTLQMTSLTAADTATYFCARAWDLWGPGTLVTVSS
VL: DVVMTQTPASVSEPVGGTVTIKCQASQSIGSDLSWYQQKPGQPPKRLIYKASKVETGVPSRFSGSGSGTEFTLTISDLECADASTYYCQSIDFSKSYIGGAFGGGTEVVVKG
B1: the binding entry in experiment [1] and in experiment [2] was “binds” in each case.

B2: Anti-WASp 274 monoclonal antibody (antibody, V domains shown)
VH: QSVEESGGRLVTPGTPLTLTCTVSGFSLSTYAMTWVRQAPGKGLQWIGSFYIEGSASYANWANGRFTISKTSSTVNLKMTSPTVADTASYFCARGNPGGSSAVWGQGTLVTVSS
VL: IVLTQTPASVSAAVGGTVTISCQSSETVYKNNYLAWYQQKLGQPPKLLIYWASKLASGVPSRFKGSGSGTQFTLTISDVVCADAGTYYCAGYQSNIVDGTAFGGGTEVVVNG
With B2, the binding entry in experiment [3] and in experiment [4] was “binds” throughout.

B3: Anti-ATP7B 1056 monoclonal antibody (antibody, V domains shown)
VH: QSLEESGGRLVTPGGSLTVTCTVSGFSLSSYWIIWVRQAPGEGLEWIGSSGPSGSAYYTSWVKGRFTISKTSTTVDLKMTGLTTEDTATYFCARAGGSDYDWFDLWGQGTLVTVSS
VL: QVLTQTPSPVSAAVGGTVTINCQSSPSVANNNWLSWFQQKPGQRPKLLIYGASTLASGVPSRFKGSGSGTQFTLTISDVQCDDAATYYCAGGHKTAEKNPFGGGTEVVVKG
Regarding B3, in experiment [5], the binding result is reported as “binds”.

B4: Anti-BTK 407 monoclonal antibody (antibody, V domains shown)
VH: QSVKESEGGLFKPTDTLTVTCTVSGFSLSRNEISWFRQAPGNGLEWIGGIGSPGRAYYATWAKSRSTITRNTNLNTVTLKMTSLTAADTATYFCARGDIWGPGTVVTVSS
VL: QVLTQTVSPVSAAVGSTVTINCQSSQSVYNNNRLAWYQQKPGQPPKGLIYSASTLASGVSSRFKGSGSGTQFTLTISDVQCDDAATYYCLGSYDCSTADCNAFGGGTEVVVKG
For B4, the binding entry in experiment [6] and in experiment [7] was “binds” in each case.

B5: Anti-SHPK 363 monoclonal antibody (antibody, V domains shown)
VH: QEQIEESGGGLVKPEGSLTLTCKVSGFDFSSNYFMCWVRQAPGKGLEWIGCILVGSGRTTFASWAKGRFTISKTSSTTVTLQMTSLTAADTATYFCARAWALWGPGTLVTVSS
VL: QVLTQTPSPVSAAVGGTVTISCQASQSVYNNNDLAWYQQKPGQPPKLLIYGASTLVSGVPSRFSGSGSGAQFTLTISDLECDDAATYYCQGGYDPRNYPFGGGTEVVVKG
On to B5, for which the binding result in experiment [8] was “binds”.
